Test results from US4599198 (dated 1986).

Assay: general procedure: solution-phase peptide synthesis; dicyclohexylcarbodiimide / 1-hydroxybenzotriazole hydrate

Substance | step yield (coupling step) | step yield (purification step, of crude material injected)
BocPhe(N-imBoc)His-2-N-i-propylazahomocyclohexylStaLys(e-CBZ)Phe benzyl ester | 51% | –
BocPhe-N-methylHis-2-N-i-butylazahomocyclohexylStaLysPheNH2 | – | Approximately 30%
BocPheHis(imBoc)-O-benzyl-2-oxahomocyclohexylStaLys(e-CBZ)Phe benzyl ester | 69% | –
